Laboratory results: patent US5387419A, “System for controlled release of antiarrhythmic agents” (The University of Michigan, priority 1993, dated 1995)

What was measured:
[1] = tested on: Ouabain-induced ventricular tachycardia; settings: in words
[2] = tested on: Ventricular tachycardia (VT) induced by rapid ventricular pacing
Description: Ventricular tachycardia was induced and maintained by rapid ventricular pacing in an open-chest dog model using male mongrel dogs (10-15 kg). Three sets of bipolar epicardial electrodes were placed at 2 cm distances from the left ventricular apex toward the base of the heart. A Grass Model 8 stimulator (Grass Instruments, delivered continuous electrical stimulation as 2-msec square wave impulses with a 50-msec cycle length via a stimulus isolation unit (Bloom Associates, Reading, Pa.). The stimulus isolation unit also repeatedly monitored the pacing current thresholds. After induction of ventricular tachycardia, a controlled release dosage form of the present invention in the shape of a patch of the drug-loaded polymeric matrix material was placed adjacent to the stimulating electrode. The time required to convert the ventricular tachycardia to sinus rhythm was measured, as well as the time course of the quantitative change for sustaining the induction of ventricular tachycardia. The effects of controlled release were monitored for up to 4 hours after conversion to normal sinus rhythm.
All other dosage forms were fabricated by dissolving the therapeutic agent in dimethylacetamide at a concentration of 100 mg/ml therapeutic agent. This solution was further dissolved in a 10% solution of a Thyomer polyurethane and solvent cast into a 0.2 mm films. […] Controls comprised patches of each polymeric matrix material.

CCN(CC)CC(=O)Nc1c(C)cccc1C [Lidocaine, lidocaine]
Conversion of ouabain-induced ventricular tachycardia to normal sinus rhythm [1]: converted to normal sinus rhythm in all experimental animals studied | peripheral plasma levels of lidocaine ([2]; dog, in vivo): undetectable | Effectiveness in converting ventricular tachycardia ([2]; in words, controlled release dosage form, epicardial): effectiveness in converting-tachycardia to normal sinus rhythm | Conversion ([2]; mean ± standard error, patches: lidocaine 28% in Tecoflex (N 16), procainamide 30% in Thyomer (7), amiodarone 30% in Thyomer with 10% polyethyleneglycol 200 (3), NiCl2 50% in Thyomer (4)): 0.86 ± 0.68 min
